Laboratory results reported in publication PMC11537769.
No constants are given. Whether binding was seen depends on the method and setting. In cells and extracts the contact can be indirect. Some binding calls cover weakened binding; strength is not graded here.

Protein sequences, listed by entry. Tags and fused reporters are not part of them.
UniProt Q06945: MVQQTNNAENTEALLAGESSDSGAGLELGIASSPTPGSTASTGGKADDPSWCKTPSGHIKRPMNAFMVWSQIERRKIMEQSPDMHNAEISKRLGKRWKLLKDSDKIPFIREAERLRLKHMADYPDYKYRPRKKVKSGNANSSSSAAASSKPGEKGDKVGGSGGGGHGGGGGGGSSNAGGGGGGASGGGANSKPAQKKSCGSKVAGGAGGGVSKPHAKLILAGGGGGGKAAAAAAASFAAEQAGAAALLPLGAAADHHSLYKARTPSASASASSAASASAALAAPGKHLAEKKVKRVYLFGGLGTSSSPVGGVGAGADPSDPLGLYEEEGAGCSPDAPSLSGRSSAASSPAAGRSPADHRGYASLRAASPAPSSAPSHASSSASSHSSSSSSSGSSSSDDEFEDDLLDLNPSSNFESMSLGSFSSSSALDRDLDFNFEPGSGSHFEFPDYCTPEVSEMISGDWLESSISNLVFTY
UniProt Q06831: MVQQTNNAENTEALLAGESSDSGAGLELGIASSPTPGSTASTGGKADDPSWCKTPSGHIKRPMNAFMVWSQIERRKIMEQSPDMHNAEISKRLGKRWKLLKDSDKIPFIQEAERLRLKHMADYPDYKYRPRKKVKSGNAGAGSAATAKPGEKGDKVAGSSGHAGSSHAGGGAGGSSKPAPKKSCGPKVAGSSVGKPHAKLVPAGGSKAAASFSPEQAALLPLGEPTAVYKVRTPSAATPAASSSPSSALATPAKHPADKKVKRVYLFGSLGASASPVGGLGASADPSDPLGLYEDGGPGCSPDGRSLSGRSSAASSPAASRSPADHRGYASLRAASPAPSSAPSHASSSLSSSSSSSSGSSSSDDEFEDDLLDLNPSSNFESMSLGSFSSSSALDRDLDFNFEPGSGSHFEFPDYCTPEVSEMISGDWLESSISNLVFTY
UniProt Q92993: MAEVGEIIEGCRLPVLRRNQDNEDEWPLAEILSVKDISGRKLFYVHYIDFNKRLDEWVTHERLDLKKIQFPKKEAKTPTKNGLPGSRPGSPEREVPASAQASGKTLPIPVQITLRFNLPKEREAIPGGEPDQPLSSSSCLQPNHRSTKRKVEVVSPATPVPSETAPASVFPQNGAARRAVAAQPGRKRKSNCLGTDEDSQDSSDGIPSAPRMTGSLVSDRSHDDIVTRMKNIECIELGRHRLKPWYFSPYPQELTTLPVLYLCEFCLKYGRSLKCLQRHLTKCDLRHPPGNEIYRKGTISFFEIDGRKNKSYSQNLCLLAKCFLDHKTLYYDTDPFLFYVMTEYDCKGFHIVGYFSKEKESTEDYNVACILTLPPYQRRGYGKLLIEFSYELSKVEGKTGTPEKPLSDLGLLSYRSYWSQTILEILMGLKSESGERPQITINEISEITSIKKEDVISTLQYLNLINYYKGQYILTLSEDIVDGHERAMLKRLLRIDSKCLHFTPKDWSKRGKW
UniProt P56962: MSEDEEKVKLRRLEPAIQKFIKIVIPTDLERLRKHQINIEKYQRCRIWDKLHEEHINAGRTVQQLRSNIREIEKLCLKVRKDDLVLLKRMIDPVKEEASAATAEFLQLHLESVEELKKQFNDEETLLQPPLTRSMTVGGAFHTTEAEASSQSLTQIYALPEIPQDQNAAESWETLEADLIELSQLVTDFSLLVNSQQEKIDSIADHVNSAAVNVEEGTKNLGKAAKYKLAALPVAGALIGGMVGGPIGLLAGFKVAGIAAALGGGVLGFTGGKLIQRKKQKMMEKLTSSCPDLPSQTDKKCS
UniProt Q8CHK4: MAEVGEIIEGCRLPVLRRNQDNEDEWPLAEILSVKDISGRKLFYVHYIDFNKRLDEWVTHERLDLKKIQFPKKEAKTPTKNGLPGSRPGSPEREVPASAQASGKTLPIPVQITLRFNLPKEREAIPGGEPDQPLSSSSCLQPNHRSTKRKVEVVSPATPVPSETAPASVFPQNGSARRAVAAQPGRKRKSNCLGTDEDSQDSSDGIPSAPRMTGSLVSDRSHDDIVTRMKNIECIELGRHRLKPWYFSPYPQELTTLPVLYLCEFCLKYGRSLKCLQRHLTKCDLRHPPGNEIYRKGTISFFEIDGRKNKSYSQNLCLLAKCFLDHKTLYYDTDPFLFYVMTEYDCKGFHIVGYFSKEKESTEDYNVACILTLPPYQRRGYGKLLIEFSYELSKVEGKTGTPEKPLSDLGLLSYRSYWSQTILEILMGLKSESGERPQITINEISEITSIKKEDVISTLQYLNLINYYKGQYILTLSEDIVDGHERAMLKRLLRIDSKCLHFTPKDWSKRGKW

Legend:
[1] = target: SOX4 (human (endogenous in SH-SY5Y)) (UniProt Q06945); test: co-IP; SH-SY5Y cells lysed in IP lysis buffer with protease and phosphatase inhibitor cocktails; antibodies and Protein A/G beads at 4°C; eluate by Western blot; cells untreated or treated with Aβ1-42, pcDNA3.1-TIP60, sh-SNAP23 or sh-IKKβ; the precipitating antibody is not told
[2] = target: T1, SNAP23 (human (endogenous in SH-SY5Y)) (UniProt O00161); test: as above
T1 sequence: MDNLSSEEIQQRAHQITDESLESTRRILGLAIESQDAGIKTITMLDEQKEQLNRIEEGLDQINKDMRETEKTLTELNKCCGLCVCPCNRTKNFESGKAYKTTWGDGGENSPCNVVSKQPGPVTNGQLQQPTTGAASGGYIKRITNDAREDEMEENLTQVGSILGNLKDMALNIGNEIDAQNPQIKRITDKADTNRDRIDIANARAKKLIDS

[3] = target: SOX4 (mouse) (mouse (endogenous in APP/PS1 and wild-type mice)) (UniProt Q06831); test: co-IP; tissue of control, AD (APP/PS1) and AAV-TIP60-injected mice; tissue, buffer and precipitating antibody not told

TIP60 (from UniProt Q92993 1-513) (enzyme)
binding [1]: binds

STX17 (from UniProt P56962 1-302)
binding [2]: binds

TIP60 (mouse) (from UniProt Q8CHK4 1-513) (enzyme)
binding [3]: binds
